# In ChEMBL document CHEMBL4316593 (Eur J Med Chem, 2019):
# Further values from the same series stand in other lists.
# How the values were obtained:
# Type in all cases: cell-based
# Settings in all cases: U-87MG ATCC
# [1] = Inhibition of RTK/PI3K/AKT/mTOR signaling in human U87 cells assessed as down regulation of DENND2C gene expression at cytotoxic IC50 measured after 48 hrs relative to control
# [2] = Inhibition of RTK/PI3K/AKT/mTOR signaling in human U87 cells assessed as down regulation of SNX29 gene expression at cytotoxic IC50 measured after 48 hrs relative to control
# [3] = Inhibition of RTK/PI3K/AKT/mTOR signaling in human U87 cells assessed as down regulation of OAS3 gene expression at cytotoxic IC50 measured after 48 hrs relative to control
# [4] = Inhibition of RTK/PI3K/AKT/mTOR signaling in human U87 cells assessed as down regulation of ZNF304 gene expression at cytotoxic IC50 measured after 48 hrs relative to control
# [5] = Inhibition of RTK/PI3K/AKT/mTOR signaling in human U87 cells assessed as down regulation of SLC25A44 gene expression at cytotoxic IC50 measured after 48 hrs relative to control
# [6] = Inhibition of RTK/PI3K/AKT/mTOR signaling in human U87 cells assessed as down regulation of SLFN5 gene expression at cytotoxic IC50 measured after 48 hrs relative to control
# [7] = Inhibition of RTK/PI3K/AKT/mTOR signaling in human U87 cells assessed as down regulation of SIPA1L1 gene expression at cytotoxic IC50 measured after 48 hrs relative to control
# [8] = Inhibition of RTK/PI3K/AKT/mTOR signaling in human U87 cells assessed as down regulation of ANO10 gene expression at cytotoxic IC50 measured after 48 hrs relative to control
# [9] = Inhibition of RTK/PI3K/AKT/mTOR signaling in human U87 cells assessed as down regulation of STAM2 gene expression at cytotoxic IC50 measured after 48 hrs relative to control
# [10] = Inhibition of RTK/PI3K/AKT/mTOR signaling in human U87 cells assessed as down regulation of ISG20L2 gene expression at cytotoxic IC50 measured after 48 hrs relative to control
# [11] = Inhibition of RTK/PI3K/AKT/mTOR signaling in human U87 cells assessed as down regulation of PSMB1 gene expression at cytotoxic IC50 measured after 48 hrs relative to control
# [12] = Inhibition of RTK/PI3K/AKT/mTOR signaling in human U87 cells assessed as down regulation of FAM53C gene expression at cytotoxic IC50 measured after 48 hrs relative to control
# [13] = Inhibition of RTK/PI3K/AKT/mTOR signaling in human U87 cells assessed as down regulation of OSGIN1 gene expression at cytotoxic IC50 measured after 48 hrs relative to control
# [14] = Inhibition of RTK/PI3K/AKT/mTOR signaling in human U87 cells assessed as down regulation of MBD1 gene expression at cytotoxic IC50 measured after 48 hrs relative to control
# [15] = Inhibition of RTK/PI3K/AKT/mTOR signaling in human U87 cells assessed as down regulation of TAF2 gene expression at cytotoxic IC50 measured after 48 hrs relative to control
# [16] = Inhibition of RTK/PI3K/AKT/mTOR signaling in human U87 cells assessed as up regulation of DRD1 gene expression at cytotoxic IC50 measured after 48 hrs relative to control
# [17] = Inhibition of RTK/PI3K/AKT/mTOR signaling in human U87 cells assessed as up regulation of PER3 gene expression at cytotoxic IC50 measured after 48 hrs relative to control
# [18] = Inhibition of RTK/PI3K/AKT/mTOR signaling in human U87 cells assessed as up regulation of versican gene expression at cytotoxic IC50 measured after 48 hrs relative to control
# [19] = Inhibition of RTK/PI3K/AKT/mTOR signaling in human U87 cells assessed as up regulation of 1,4-alpha-glucan branching enzyme 1 gene expression at cytotoxic IC50 measured after 48 hrs relative to control
# [20] = Inhibition of RTK/PI3K/AKT/mTOR signaling in human U87 cells assessed as up regulation of brain derived neurotrophic factor gene expression at cytotoxic IC50 measured after 48 hrs relative to control
# [21] = Inhibition of RTK/PI3K/AKT/mTOR signaling in human U87 cells assessed as up regulation of protein phosphatase 1 regulatory subunit 10 gene expression at cytotoxic IC50 measured after 48 hrs relative to control
# [22] = Inhibition of RTK/PI3K/AKT/mTOR signaling in human U87 cells assessed as up regulation of adaptor related protein complex 1 sigma 1 subunit gene expression at cytotoxic IC50 measured after 48 hrs relative to control
# [23] = Inhibition of RTK/PI3K/AKT/mTOR signaling in human U87 cells assessed as up regulation of ATP synthase F0 subunit 6 gene expression at cytotoxic IC50 measured after 48 hrs relative to control
# [24] = Inhibition of RTK/PI3K/AKT/mTOR signaling in human U87 cells assessed as up regulation of peptidylprolyl isomerase like 3 gene expression at cytotoxic IC50 measured after 48 hrs relative to control
# [25] = Inhibition of RTK/PI3K/AKT/mTOR signaling in human U87 cells assessed as up regulation of LARGE xylosyl- and glucuronyltransferase 2 gene expression at cytotoxic IC50 measured after 48 hrs relative to control
# [26] = Inhibition of RTK/PI3K/AKT/mTOR signaling in human U87 cells assessed as up regulation of exosome component 2 gene expression at cytotoxic IC50 measured after 48 hrs relative to control
# [27] = Inhibition of RTK/PI3K/AKT/mTOR signaling in human U87 cells assessed as up regulation of Sad1 and UNC84 domain containing 1 gene expression at cytotoxic IC50 measured after 48 hrs relative to control
# [28] = Inhibition of RTK/PI3K/AKT/mTOR signaling in human U87 cells assessed as up regulation of DEAH-box helicase 37 gene expression at cytotoxic IC50 measured after 48 hrs relative to control
# [29] = Inhibition of RTK/PI3K/AKT/mTOR signaling in human U87 cells assessed as up regulation of cornichon family AMPA receptor auxiliary protein 1 gene expression at cytotoxic IC50 measured after 48 hrs relative to control
# [30] = Inhibition of RTK/PI3K/AKT/mTOR signaling in human U87 cells assessed as up regulation of DPP7 gene expression at cytotoxic IC50 measured after 48 hrs relative to control
# [31] = Inhibition of RTK/PI3K/AKT/mTOR signaling in human U87 cells assessed as up regulation of RPSA gene expression at cytotoxic IC50 measured after 48 hrs relative to control
# [32] = Inhibition of RTK/PI3K/AKT/mTOR signaling in human U87 cells assessed as up regulation of TCF3 gene expression at cytotoxic IC50 measured after 48 hrs relative to control
smiles,measurement,setting,value
CC(=O)C(=NNc1ccccc1C#N)C(C)=O,log2FC,[1],-1.97
same,log2FC,[2],-1.74
same,log2FC,[3],-1.25
same,log2FC,[4],-1.17
same,log2FC,[5],-1.09
same,log2FC,[6],-0.936
same,log2FC,[7],-0.92
same,log2FC,[8],-0.881
same,log2FC,[9],-0.856
same,log2FC,[10],-0.774
same,log2FC,[11],-0.654
same,log2FC,[12],-0.639
same,log2FC,[13],-0.551
same,log2FC,[14],-0.527
same,log2FC,[15],-0.503
same,log2FC,[16],4.16
same,log2FC,[17],2.22
same,log2FC,[18],1.43
same,log2FC,[19],1.16
same,log2FC,[20],1.09
same,log2FC,[21],1.05
same,log2FC,[22],0.937
same,log2FC,[23],0.927
same,log2FC,[24],0.837
same,log2FC,[25],0.797
same,log2FC,[26],0.795
same,log2FC,[27],0.795
same,log2FC,[28],0.661
same,log2FC,[29],0.651
same,log2FC,[30],0.595
same,log2FC,[31],0.581
same,log2FC,[32],0.578
